Some of the results follow. The calls rarely recur for the same compound in another form.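 In K562 cells expressing nanoluciferase-fused kinases, luminescence was recorded at 4 h intervals between 2 and 18 h, normalized as percent of control with DMSO at 100% and a positive control at 0%. A significant (2 sigma) signal drop marks a time point as decreased. The authors' rule for a hit is not shown and takes in more than the number of time points.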
Experiments:
Test in all cases: number of time points (of 5) at which kinase-Nluc abundance scored as decreased, DMSO-normalised (count); higher = more persistent destabilization
Settings in all cases: K562; 2-18 h
CAMK2A = CAMK2A (UniProt Q9UQM7)
CAMK2G = CAMK2G (UniProt Q13555)
CDK10 = CDK10 (UniProt Q15131)
CDK2 = CDK2 (UniProt P24941)
CDK3 = CDK3 (UniProt Q00526)
CDK5 = CDK5 (UniProt Q00535)
CDK6 = CDK6 (UniProt Q00534)
CHEK2 = CHEK2 (UniProt O96017)
CSF1R = CSF1R (UniProt P07333)
CSK = CSK (UniProt P41240)

Protein sequences, listed by entry. Tags and fused reporters are not part of them. Lines headed by an entry give the natural chain unless they say otherwise; changes in a name come on top.
UniProt Q9UQM7, whole entry: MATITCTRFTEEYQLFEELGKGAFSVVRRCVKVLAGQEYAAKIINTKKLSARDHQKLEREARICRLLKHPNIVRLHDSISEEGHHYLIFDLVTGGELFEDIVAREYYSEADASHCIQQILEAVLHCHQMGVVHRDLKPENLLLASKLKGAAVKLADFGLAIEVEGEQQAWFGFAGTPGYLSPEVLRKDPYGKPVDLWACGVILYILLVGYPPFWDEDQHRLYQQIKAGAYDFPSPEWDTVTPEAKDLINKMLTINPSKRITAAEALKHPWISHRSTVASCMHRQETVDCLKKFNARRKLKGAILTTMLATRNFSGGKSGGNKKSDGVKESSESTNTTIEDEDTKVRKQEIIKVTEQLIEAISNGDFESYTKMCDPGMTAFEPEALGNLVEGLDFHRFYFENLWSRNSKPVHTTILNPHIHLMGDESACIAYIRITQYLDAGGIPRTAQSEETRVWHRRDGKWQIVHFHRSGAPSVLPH
UniProt Q13555: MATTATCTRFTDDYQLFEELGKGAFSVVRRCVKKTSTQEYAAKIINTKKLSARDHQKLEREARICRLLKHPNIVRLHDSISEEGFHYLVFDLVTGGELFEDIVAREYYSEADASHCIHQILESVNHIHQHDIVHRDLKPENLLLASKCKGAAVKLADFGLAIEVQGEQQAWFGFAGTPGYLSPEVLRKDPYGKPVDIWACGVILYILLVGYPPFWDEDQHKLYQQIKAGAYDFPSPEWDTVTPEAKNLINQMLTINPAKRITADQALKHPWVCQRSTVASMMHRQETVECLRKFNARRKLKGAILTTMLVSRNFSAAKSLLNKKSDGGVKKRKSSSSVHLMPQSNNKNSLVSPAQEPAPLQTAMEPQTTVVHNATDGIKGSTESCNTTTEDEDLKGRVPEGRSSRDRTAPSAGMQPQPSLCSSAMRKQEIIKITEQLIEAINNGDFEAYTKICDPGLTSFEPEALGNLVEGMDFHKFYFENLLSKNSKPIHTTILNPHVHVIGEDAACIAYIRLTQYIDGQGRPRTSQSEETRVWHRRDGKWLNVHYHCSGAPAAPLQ
UniProt Q15131: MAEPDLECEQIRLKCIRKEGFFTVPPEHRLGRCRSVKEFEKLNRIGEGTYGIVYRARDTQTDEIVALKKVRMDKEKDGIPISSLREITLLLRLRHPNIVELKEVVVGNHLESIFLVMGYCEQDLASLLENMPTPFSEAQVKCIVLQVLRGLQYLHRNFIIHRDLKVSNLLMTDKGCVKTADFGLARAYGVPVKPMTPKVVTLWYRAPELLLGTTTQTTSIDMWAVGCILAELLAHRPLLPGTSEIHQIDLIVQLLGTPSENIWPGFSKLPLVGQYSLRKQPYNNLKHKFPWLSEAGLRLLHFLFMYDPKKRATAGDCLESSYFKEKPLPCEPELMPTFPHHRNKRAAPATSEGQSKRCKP
UniProt Q00526: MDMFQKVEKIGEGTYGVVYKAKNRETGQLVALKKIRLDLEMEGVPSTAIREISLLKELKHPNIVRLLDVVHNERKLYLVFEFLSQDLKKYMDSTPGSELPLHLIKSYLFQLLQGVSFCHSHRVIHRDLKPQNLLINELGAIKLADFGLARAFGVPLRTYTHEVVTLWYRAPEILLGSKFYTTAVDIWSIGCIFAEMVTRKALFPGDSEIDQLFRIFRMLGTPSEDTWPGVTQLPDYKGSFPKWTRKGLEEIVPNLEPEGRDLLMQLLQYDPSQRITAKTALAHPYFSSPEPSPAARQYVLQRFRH
UniProt Q00535, whole entry, looked up: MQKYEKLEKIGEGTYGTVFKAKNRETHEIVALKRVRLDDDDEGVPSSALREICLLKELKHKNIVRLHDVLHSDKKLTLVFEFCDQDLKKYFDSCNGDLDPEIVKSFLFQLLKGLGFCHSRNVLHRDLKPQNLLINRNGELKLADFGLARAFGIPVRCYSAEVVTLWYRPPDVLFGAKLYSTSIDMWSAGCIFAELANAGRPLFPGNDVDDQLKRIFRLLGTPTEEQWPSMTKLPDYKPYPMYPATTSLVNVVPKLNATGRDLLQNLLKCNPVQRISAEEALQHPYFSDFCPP
UniProt Q00534, whole entry: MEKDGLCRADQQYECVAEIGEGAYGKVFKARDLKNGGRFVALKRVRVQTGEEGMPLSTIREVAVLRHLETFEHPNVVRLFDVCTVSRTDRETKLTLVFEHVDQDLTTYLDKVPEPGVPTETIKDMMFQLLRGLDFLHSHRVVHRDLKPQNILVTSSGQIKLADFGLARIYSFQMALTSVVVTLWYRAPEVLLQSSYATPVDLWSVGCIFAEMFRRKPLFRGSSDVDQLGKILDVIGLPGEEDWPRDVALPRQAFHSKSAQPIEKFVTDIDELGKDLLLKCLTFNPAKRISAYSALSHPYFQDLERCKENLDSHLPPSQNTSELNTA
UniProt O96017, whole entry: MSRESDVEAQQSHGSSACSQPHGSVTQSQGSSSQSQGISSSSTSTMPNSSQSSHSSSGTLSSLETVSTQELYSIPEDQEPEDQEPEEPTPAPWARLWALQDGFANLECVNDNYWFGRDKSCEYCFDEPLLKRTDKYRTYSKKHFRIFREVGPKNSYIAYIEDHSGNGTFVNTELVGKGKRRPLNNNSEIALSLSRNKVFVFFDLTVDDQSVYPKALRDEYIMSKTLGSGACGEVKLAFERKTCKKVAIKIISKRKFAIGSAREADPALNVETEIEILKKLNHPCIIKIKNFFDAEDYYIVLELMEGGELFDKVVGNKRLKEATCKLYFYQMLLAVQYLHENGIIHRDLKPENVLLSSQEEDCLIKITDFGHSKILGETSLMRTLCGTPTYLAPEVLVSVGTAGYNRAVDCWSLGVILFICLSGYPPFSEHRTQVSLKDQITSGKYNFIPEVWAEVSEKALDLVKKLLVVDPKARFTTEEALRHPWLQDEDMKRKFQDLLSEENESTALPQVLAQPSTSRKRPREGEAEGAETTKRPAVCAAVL
UniProt P07333, whole entry: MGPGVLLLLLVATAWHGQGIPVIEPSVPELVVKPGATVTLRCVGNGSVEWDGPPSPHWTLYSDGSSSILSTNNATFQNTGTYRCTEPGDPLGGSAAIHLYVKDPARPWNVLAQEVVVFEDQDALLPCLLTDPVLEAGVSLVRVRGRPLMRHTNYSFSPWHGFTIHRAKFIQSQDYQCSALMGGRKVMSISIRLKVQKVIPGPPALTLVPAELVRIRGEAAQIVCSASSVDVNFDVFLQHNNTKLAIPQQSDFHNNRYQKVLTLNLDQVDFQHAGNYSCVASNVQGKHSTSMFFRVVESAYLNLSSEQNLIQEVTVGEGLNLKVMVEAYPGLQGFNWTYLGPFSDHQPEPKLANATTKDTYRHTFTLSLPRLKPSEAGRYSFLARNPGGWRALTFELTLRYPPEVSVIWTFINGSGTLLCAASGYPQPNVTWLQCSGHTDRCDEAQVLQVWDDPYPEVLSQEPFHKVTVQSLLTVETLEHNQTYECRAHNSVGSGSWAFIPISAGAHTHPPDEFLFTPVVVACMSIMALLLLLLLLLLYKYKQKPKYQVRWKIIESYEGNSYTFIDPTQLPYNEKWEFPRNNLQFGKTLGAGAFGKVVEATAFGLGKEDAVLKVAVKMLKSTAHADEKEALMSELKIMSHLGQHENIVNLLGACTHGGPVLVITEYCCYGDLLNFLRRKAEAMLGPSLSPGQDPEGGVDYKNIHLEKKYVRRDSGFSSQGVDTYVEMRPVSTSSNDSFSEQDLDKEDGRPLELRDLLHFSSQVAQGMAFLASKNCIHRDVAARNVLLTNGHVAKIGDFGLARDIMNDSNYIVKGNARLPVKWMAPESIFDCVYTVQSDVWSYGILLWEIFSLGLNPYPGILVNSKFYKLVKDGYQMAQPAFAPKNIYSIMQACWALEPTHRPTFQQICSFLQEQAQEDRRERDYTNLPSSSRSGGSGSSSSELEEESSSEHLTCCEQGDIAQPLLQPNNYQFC
UniProt P41240: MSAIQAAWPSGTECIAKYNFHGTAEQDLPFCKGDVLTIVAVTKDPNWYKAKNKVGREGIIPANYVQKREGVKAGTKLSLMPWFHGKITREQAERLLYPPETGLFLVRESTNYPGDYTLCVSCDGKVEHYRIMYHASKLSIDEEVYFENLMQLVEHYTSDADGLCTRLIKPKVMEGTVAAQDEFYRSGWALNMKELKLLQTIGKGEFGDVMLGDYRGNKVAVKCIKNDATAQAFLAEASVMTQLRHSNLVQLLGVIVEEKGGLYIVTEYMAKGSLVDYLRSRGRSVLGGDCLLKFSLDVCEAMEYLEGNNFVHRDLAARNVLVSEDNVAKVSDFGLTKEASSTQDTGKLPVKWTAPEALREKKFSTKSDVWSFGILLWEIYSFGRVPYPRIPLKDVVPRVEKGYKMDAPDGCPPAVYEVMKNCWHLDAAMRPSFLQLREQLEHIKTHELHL

Measured: number of time points

COc1ccc([C@H]2c3[nH]c4ccc(Cl)cc4c3CCN2C(=O)Oc2ccc(Cl)cc2)cc1 (2.5 µM)
0: CAMK2A | CAMK2G | CDK10 | CDK2 | CDK3 | CDK5 | CDK6 | CHEK2 | CSF1R | CSK

Cn1cnc(-c2cc3nccc(Oc4ccc(NC(=S)NC(=O)Cc5ccccc5)cc4F)c3s2)c1 [MGCD-265 analog] (10 µM)
1: CSF1R
0: CAMK2A | CAMK2G | CDK2 | CDK3 | CDK5 | CHEK2 | CSK
3: CDK10
2: CDK6

C=CC(=O)Nc1ccc(CN(C(=O)Nc2c(Cl)c(OC)cc(OC)c2Cl)c2cc(Nc3ccc(N4CCN(C)CC4)cc3)ncn2)cc1 (10 µM)
0: CAMK2A | CAMK2G | CDK10 | CDK2 | CDK3 | CDK5 | CDK6 | CHEK2 | CSF1R | CSK

Cc1cc([C@H](C)Nc2ccccc2)c2oc(N3CCOCC3)cc(=O)c2c1 (10 µM)
0: CAMK2A | CAMK2G | CDK10 | CDK2 | CDK3 | CDK5 | CDK6 | CHEK2 | CSF1R | CSK

OC[C@H]1O[C@@H](Oc2cc3c(O)cc(O)cc3[o+]c2-c2cc(O)c(O)c(O)c2)[C@H](O)[C@@H](O)[C@@H]1O [Delphinidin 3-glucoside (chloride)] (10 µM)
0: CAMK2A | CAMK2G | CDK10 | CDK2 | CDK3 | CDK5 | CDK6 | CHEK2 | CSF1R | CSK

Three entries from above, ordered by heavy-atom count, ascending:
COc1ccc([C@H]2c3[nH]c4ccc(Cl)cc4c3CCN2C(=O)Oc2ccc(Cl)cc2)cc1 (2.5 µM)
0: CAMK2A | CAMK2G | CDK10 | CDK2 | CDK3 | CDK5 | CDK6 | CHEK2 | CSF1R | CSK

OC[C@H]1O[C@@H](Oc2cc3c(O)cc(O)cc3[o+]c2-c2cc(O)c(O)c(O)c2)[C@H](O)[C@@H](O)[C@@H]1O [Delphinidin 3-glucoside (chloride)] (10 µM)
0: CAMK2A | CAMK2G | CDK10 | CDK2 | CDK3 | CDK5 | CDK6 | CHEK2 | CSF1R | CSK

C=CC(=O)Nc1ccc(CN(C(=O)Nc2c(Cl)c(OC)cc(OC)c2Cl)c2cc(Nc3ccc(N4CCN(C)CC4)cc3)ncn2)cc1 (10 µM)
0: CAMK2A | CAMK2G | CDK10 | CDK2 | CDK3 | CDK5 | CDK6 | CHEK2 | CSF1R | CSK

Additional entries:

CC(C)=CCC[C@](C)(O[C@@H]1O[C@H](CO)[C@@H](O)[C@H](O)[C@H]1O)[C@H]1CC[C@]2(C)[C@@H]1[C@H](O)C[C@@H]1[C@@]3(C)CC[C@H](O)C(C)(C)[C@@H]3[C@@H](O[C@@H]3O[C@H](CO)[C@@H](O)[C@H](O)[C@H]3O[C@@H]3O[C@@H](C)[C@H](O)[C@@H](O)[C@H]3O)C[C@]12C [Ginsenoside Re] (10 µM)
0: CAMK2A | CAMK2G | CDK10 | CDK2 | CDK3 | CDK5 | CDK6 | CHEK2 | CSF1R | CSK

Cc1noc(C)c1-c1ccc(-c2cc(C(N)=O)c(NC(N)=O)s2)c(O[C@H]2CCNC2)c1 (10 µM)
0: CAMK2A | CAMK2G | CDK10 | CDK2 | CDK3 | CDK5 | CDK6 | CHEK2 | CSF1R | CSK

O=C1NC(=O)C(=Cc2ccc(-c3ccc(F)cc3)o2)S1 (stereo in doubt) (10 µM)
0: CAMK2A | CAMK2G | CDK10 | CDK2 | CDK3 | CDK5 | CDK6 | CHEK2 | CSF1R | CSK

CCn1c(=O)c(-c2ccc(-c3cncc(C)n3)cc2Cl)cc2cnc(NCCC3CCN(C)CC3)nc21 (10 µM)
0: CAMK2A | CAMK2G | CDK10 | CDK2 | CDK3 | CDK5 | CDK6 | CHEK2 | CSF1R | CSK

CN(CCNc1ccc2ncc(-c3ccc(C(N)=O)cc3)n2n1)C(=O)OC(C)(C)C (10 µM)
0: CAMK2A | CAMK2G | CDK10 | CDK2 | CDK3 | CDK5 | CDK6 | CHEK2 | CSF1R | CSK

Cc1cc(Nc2nc(N[C@@H](C)c3ccc(F)cc3)c(C#N)cc2F)n[nH]1 (10 µM)
0: CAMK2A | CAMK2G | CDK10 | CDK2 | CDK3 | CDK5 | CDK6 | CHEK2 | CSF1R | CSK

COc1ccc(-c2ccc3c(N4CCOC[C@@H]4C)nc(N4CCOC[C@@H]4C)nc3n2)cc1CO (2.5 µM)
3: CAMK2G
1: CAMK2A
0: CDK10 | CDK2 | CDK3 | CDK5 | CDK6 | CSK
2: CHEK2
4: CSF1R

Cc1ccc(-c2c(C(=O)CCl)n(CCCO)c3ncnc(N)c23)cc1 (10 µM)
0: CAMK2A | CDK10 | CDK2 | CDK3 | CDK5 | CSK
5: CSF1R
2: CAMK2G | CDK6
4: CHEK2

COc1cc(N2CCN(C)CC2)ccc1Nc1ncc2c(n1)N(C1CCC1)C(=O)N(c1c(C)cccc1C)C2 (2.5 µM)
0: CAMK2A | CAMK2G | CDK10 | CDK2 | CDK3 | CDK5 | CDK6 | CHEK2 | CSF1R | CSK

Fc1ccc(-c2nc(-c3c(F)cccc3F)[nH]c2-c2ccncc2)cc1 (10 µM)
0: CAMK2A | CAMK2G | CDK10 | CDK2 | CDK3 | CDK5 | CDK6 | CHEK2 | CSF1R | CSK

Source: the supplement of paper PMC12823440, “Inhibitors supercharge kinase turnover through native proteolytic circuits” (Nature, 2025)
